No constants are given. Whether binding was seen depends on the method and setting. In cells and extracts the contact can be indirect. Some binding calls cover weakened binding; strength is not graded here. Tags and fused reporters may be left off the sequences shown.
Assays:
[1] = target: T1, HA-GCM1 (UniProt Q9NP62); assay: co-immunoprecipitation in 293T cells transfected with pHA-GCM1 and pNotch1IC-FLAG
T1 sequence (looked up): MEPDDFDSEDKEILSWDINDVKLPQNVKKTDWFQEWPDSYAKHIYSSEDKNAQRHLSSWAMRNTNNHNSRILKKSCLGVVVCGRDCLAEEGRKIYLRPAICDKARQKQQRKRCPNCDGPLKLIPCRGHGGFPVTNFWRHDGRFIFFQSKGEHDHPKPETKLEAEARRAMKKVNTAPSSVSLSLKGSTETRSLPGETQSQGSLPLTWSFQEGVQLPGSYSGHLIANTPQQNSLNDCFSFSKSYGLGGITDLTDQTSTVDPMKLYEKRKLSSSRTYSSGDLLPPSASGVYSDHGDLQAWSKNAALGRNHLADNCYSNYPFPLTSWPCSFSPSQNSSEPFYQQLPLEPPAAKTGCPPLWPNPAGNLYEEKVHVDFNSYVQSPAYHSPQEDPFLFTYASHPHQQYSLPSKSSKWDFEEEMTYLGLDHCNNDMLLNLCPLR

Amino acid sequences for entries named in this document (tags omitted). Residues count along the entry.
UniProt Q01705, residues 1744-2531: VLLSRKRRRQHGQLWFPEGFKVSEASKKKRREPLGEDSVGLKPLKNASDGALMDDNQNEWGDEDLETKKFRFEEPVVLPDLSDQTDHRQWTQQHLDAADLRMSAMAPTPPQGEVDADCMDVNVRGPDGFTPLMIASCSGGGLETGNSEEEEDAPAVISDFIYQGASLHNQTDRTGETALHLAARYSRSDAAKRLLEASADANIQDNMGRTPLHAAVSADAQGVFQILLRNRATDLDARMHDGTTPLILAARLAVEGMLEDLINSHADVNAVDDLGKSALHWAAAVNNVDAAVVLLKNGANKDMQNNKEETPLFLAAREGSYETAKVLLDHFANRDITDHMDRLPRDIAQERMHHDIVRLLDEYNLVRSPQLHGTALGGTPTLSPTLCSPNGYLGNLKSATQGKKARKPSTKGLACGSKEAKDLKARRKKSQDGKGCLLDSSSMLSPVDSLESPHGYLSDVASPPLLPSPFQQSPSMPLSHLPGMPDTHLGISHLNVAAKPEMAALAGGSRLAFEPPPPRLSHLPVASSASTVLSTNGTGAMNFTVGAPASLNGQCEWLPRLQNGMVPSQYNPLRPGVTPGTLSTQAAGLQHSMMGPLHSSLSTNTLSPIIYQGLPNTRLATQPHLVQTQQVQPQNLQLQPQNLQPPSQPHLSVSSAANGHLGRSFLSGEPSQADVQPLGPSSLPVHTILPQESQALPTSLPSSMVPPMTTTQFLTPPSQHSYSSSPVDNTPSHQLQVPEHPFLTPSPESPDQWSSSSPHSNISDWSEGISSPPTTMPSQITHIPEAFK

[2] = target: T1, HA-GCM1; assay: co-immunoprecipitation and confocal microscopy in transfected 293T cells (figure legend)

binding [1]: binds | binding [2]: binds
Substance: Notch1IC-FLAG (from UniProt Q01705 1744-2531)

— patent US20220155314A1, “TROPHOBLAST STEM CELL, METHODS OF PREPARATION AND USES THEREOF” (Academia Sinica, priority 2020, published 2022)
